Reference: patent US12115264B2, “Sterilization and filtration of peptide compositions” (3-D Matrix, Ltd., priority 2014, dated 2024)
“Also recorded” adds a separate entry of the source. Where no end group is shown, it is not given here.

Key:
[1] = Filtration through 0.2 Nalgene syringe filter with 25 mm cellulose acetate membranes; settings: 25 mm cellulose acetate membrane
[2] = Filtering abilities of the system of FIG. 13 (membrane shear-thinning unit + 0.2 μm filter); settings: for Output through filter (0.2μ pore size) at 100 psi / Output through shear-thinning unit (5 μm pore size) + filter (0.2 μm pore size) at 100 psi: membranes 25 mm
[3] = 1.0% solution at 50 psi, 25 mm diameter

Compound: KLDLKLDLKLDL [KLD12, self-assembling peptide with repeats of KLDL, tested as solutions of 1 to 2.5%]
- passage through the filter ([1]; 1% solution): passed successfully through the filter
- passage through the filter ([1]; 1.5% solution): passed successfully through the filter
- passage through the filter ([1]; 2% solution): could not be passed successfully through the filter
- passage through the filter ([1]; 2.5% solution): could not be passed successfully through the filter; also recorded: not able to be filtered
- Output through filter (0.2μ pore size) at 100 psi ([2]; 2.5% solution): 0 mL/min
- Output through shear-thinning unit (5 μm pore size) + filter (0.2 μm pore size) at 100 psi ([2]; 2.5% solution): 11.4 mL/min

Compound: Arg-Ala-Asp-Ala-Arg-Ala-Asp-Ala-Arg-Ala-Asp-Ala-Arg-Ala-Asp-Ala [RADA16]
- Output through shear-thinning unit (5 μm pore size) + filter (0.2 μm pore size) [2, 3]: 1.6 mL/min
- Output through shear-thinning unit (20 μm pore size) + filter (0.2 μm pore size) [2, 3]: 1.7 mL/min
- Output through shear-thinning unit (41 μm pore size) + filter (0.2 μm pore size) [2, 3]: 1.4 mL/min
- Output through filter (0.2μ pore size) at 100 psi ([2]; 2.5% solution): 0 mL/min
- Output through shear-thinning unit (5 μm pore size) + filter (0.2 μm pore size) at 100 psi ([2]; 2.5% solution): 3.8 mL/min

Compound: Ile-Glu-Ile-Lys-Ile-Glu-Ile-Lys-Ile-Glu-Ile-Lys-Ile [IEIK13]
- passage through the filter ([1]; 1.5% solution): could not be passed successfully through the filter
- passage through the filter ([1]; 1.5% solution, listed as IEK13): not able to be filtered
- Output through filter (0.2μ pore size) at 100 psi ([2]; 1.5% solution): 0 mL/min
- Output through shear-thinning unit (5 μm pore size) + filter (0.2 μm pore size) at 100 psi ([2]; 1.5% solution): 12.5 mL/min

Compound: O [Water, reference compound]
- Output through filter: 0.2 μm pore size ([2]; at 25 psi, 25 mm diameter): 42 mL/min
- Output through shear-thinning unit (5 μm pore size) + filter (0.2 μm pore size) ([2]; at 25 psi, 25 mm diameter): 33 mL/min
- Output through shear-thinning unit (20 μm pore size) + filter (0.2 μm pore size) ([2]; at 25 psi, 25 mm diameter): 41 mL/min
- Output through shear-thinning unit (41 μm pore size) + filter (0.2 μm pore size) ([2]; at 25 psi, 25 mm diameter): 35 mL/min
